# Several values for one entry are separate records, joined by “and”; a condition that tells them apart may be missing. Equal entries are not always repeated. The campaign covered roughly 410,000 compounds. About 18,000 (4.4%) were called active. This list was built around the results that the source calls inconclusive (neither active nor inactive); the mix of calls is not that of the screen. Rule as the data show it: active = activity change below about -60%; inconclusive = no clear call, values can overlap the other calls; inactive = above about -39%.
# Experiment: qHTS Assay for inhibitors of the human cytomegalovirus (HCMV)
# Conditions: HFF cells, HCMV-luciferase reporter, 72 h; at 57.5 µM; active compounds read low
# Outline: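 Two compound doses tested in HFFs infected with HCMV-luciferase, MOI 1 PFU/cell, 72 h at 37C. Lysate luminescence read with OneGlo; data normalized against buffer-only and 10uM Salinomycin inhibitor controls.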
# % is scaled to controls: 0 for no effect and ±100 for the full control effect.
row,SMILES,"activity change, negative = inhibition"
1,Clc1ccc(-c2csc(Nc3cccnc3)n2)cc1,inconclusive: -43.4%
2,COc1ccc(S(=O)(=O)Nc2ccccc2OC)cc1NC(=O)CC1CC2CCC1C2 (stereo not given),inconclusive: -46.7%
3,O=C(COc1cccc(NC(=O)c2cccs2)c1)c1ccc(F)cc1,inconclusive: -51.5%
4,COc1ccc(Nc2nc(-c3cccc(Cl)c3)c3c(n2)-c2ccccc2OC3)cc1,inactive: -24.7%
5,Cc1ccc(NS(=O)(=O)c2ccc(-c3cnc(C4CC4)o3)cc2)c(C)c1,inconclusive: -49.5%
6,COC(=O)c1sc(C(F)(F)F)c(-c2ccccc2)c1S(=O)(=O)N1CCCC1,inconclusive: -57.6%
7,Cc1ccc(N2CCN(S(=O)(=O)c3ccc4oc(=O)ccc4c3)CC2)c(C)c1,inconclusive: -53.1%
8,O=C(NCCN1CCN(c2ccccc2)CC1)Nc1cccc(Br)c1,inactive: -32.7% and inactive: 5.41%
9,CC1(C)CC(=O)c2cc(-c3nc(-c4ccccc4)cs3)c(=O)[nH]c2C1,inactive: -4.07%
10,CCOC(=O)c1cnc(SCC(=O)c2ccc3c(c2)OCCO3)nc1N,inactive: 6.02%
11,Fc1ccc(-c2cn(-c3ccccc3)c3[n+]2CCS3)cc1,inactive: -25.3%
12,O=C1CCCN1c1ccc(CNS(=O)(=O)c2ccc(F)cc2)cc1,inconclusive: -45.9%
13,COc1ccc(CN2C(=O)C(CC(=O)NC3CCCC3)CC(C(=O)N(C)C)=C2C)cc1 (stereo not given),inactive: 4.2%
14,Cc1ccc(NC(=O)Cn2cc(C(=O)c3ccccc3)c3ccccc32)cc1,active: -91.2%
15,O=C(Nc1nc(-c2ccccc2)cs1)c1ccc2c(=O)n3c(nc2c1)CCCCC3,active: -89.5%
16,Nc1[nH]c(C(=O)c2ccccc2)c(-c2ccc(Br)cc2)c1C(=O)NC1CCCCC1,inconclusive: -43.6%
17,COc1cc(C(=O)N/N=C/c2ccccn2)cc(OC)c1OC,inconclusive: -47.1%
18,CC(C)(C)C(=O)Nc1ccc(C(=O)N/N=C/c2ccccc2OC(=O)c2ccc(Cl)cc2Cl)cc1,inconclusive: -57.2%
19,CCCn1c(C)cc(C(=O)COc2ccc(-c3nnco3)cc2)c1C,inactive: -3.84%
20,CSCCC(C(=O)NC1CCCC1)n1c(C2CC2)nc2ccccc21 (stereo not given),inconclusive: -54.5%
21,COc1cccc(-c2ccc(NC(=O)C3CCCN(Cc4cnn(C(C)C)c4)C3)cc2)c1 (stereo not given),active: -108%
22,Cc1nnc(C)n1-c1ccc(C(=O)Nc2cccc(Br)c2)cc1,inactive: 33.2%

row,SMILES,"activity change, negative = inhibition"
1,CCOC(=O)[C@@H]1[C@H]2COc3ccc(Br)cc3[C@@H]2N2C(=O)N(c3ccc(Cl)cc3)C(=O)[C@@]12C,inconclusive: -51.2%
2,Cc1ccccc1OCC(=O)N/N=C/c1cccn1C,inconclusive: -54.9%
3,CCOC(=O)Cc1csc(/N=C/c2c(O)n(-c3ccc(C)cc3C)c(=O)c3ccccc23)n1,inconclusive: -41.5%
4,C=CCn1cc(/C=C/c2cc[n+](C)cc2)c2ccccc21,active: -95.8%
5,CCc1cc(OC)c(CCN)cc1OC,inconclusive: -42.6%
6,NC1CCCCC1N=Cc1c(O)n(CCc2ccc(F)cc2)c(=O)[nH]c1=O (stereo not given),inconclusive: -48.9%
7,CCCCNC(=O)C1(C)CCN1C(=O)c1csnn1 (stereo not given),inconclusive: -60%
8,CCn1nc(-c2ccccc2)c2nc3ccccc3nc21,active: -60.5%
9,Cc1ccc2ccc(C(Nc3ccccc3)c3ccc(F)cc3)c(O)c2n1 (stereo not given),active: -60.7%
10,CCN(C(=O)C12CC3CC(CC(C3)C1)C2)C1CCS(=O)(=O)C1 (stereo not given),inactive: -24%
11,COc1cccc(/C=N/n2c(=O)[nH]c3ccccc32)c1OC,inactive: 71.1%
12,CCN1CCN(c2cc(C)c3cc(NC(=S)N4CCCC(C)C4)ccc3n2)CC1 (stereo not given),active: -71.2%
13,Oc1ccc(F)c2cccnc12,inactive: -28.3%
14,O=C(Oc1c(-c2ccccc2)oc2ccccc2c1=O)c1ccccc1,active: -81.9%
15,CCOc1ccc2oc(C(=O)NNC(=O)c3ccccc3O)c(C)c2c1,active: -72.2%
16,O=C(C=P(c1ccccc1)(c1ccccc1)c1ccccc1)c1ccccc1-c1ccccc1C(=O)C=P(c1ccccc1)(c1ccccc1)c1ccccc1,active: -98.4%
17,C[C@@H]1CN([C@H](C)CO)C(=O)CCCn2cc(nn2)CO[C@H]1CN(C)C(=O)Nc1ccc2c(c1)OCO2,inactive: 26.8%
18,O=C(Nc1ncccc1O)c1ccc(NS(=O)(=O)c2ccc3[nH]c(=O)[nH]c3c2)cc1,inconclusive: -53.1%
19,COc1cc(NC(=O)COC(=O)c2cc(S(=O)(=O)N3CCOCC3)ccc2F)cc(OC)c1,active: -68.7%
20,CCc1ccc(CNC(=O)c2ccc3c(Cl)c4c(nc3c2)CCCC4)cc1,inactive: -26.1%
21,COc1ccc(/C(C)=N\NC(=O)c2ccc3c(c2)OCO3)cc1OC,inconclusive: -59.4%
22,CN(C)c1ccc(NC(=O)Nc2csc3ccccc23)cc1,inactive: -36%

# Single entries from above.
# Under activity change, negative = inhibition, O=C(Oc1c(-c2ccccc2)oc2ccccc2c1=O)c1ccccc1 has the entry active: -81.9%
# Under activity change, negative = inhibition, COc1cccc(/C=N/n2c(=O)[nH]c3ccccc32)c1OC has the entry inactive: 71.1%
# Under activity change, negative = inhibition, COc1cccc(-c2ccc(NC(=O)C3CCCN(Cc4cnn(C(C)C)c4)C3)cc2)c1 (stereo not given) has the entry active: -108%
# Under activity change, negative = inhibition, COC(=O)c1sc(C(F)(F)F)c(-c2ccccc2)c1S(=O)(=O)N1CCCC1 has the entry inconclusive: -57.6%

# The list goes on.

row,SMILES,"activity change, negative = inhibition"
1,O=C(CSc1ncn[nH]1)Nc1ccc(OCc2ccccc2)cc1,inconclusive: -40.7%
2,C=CCn1c(SCc2ccc(C(=O)Nc3nccs3)cc2)nnc1-c1ccc(C)c(Cl)c1,active: -94.3%
3,Cc1nc2cc(C(=O)O)ccc2s1,inactive: 103%
4,CC(=O)c1c(C)[nH]c(C(=O)OCCOc2ccccc2)c1C,inconclusive: -50.6%
5,COc1ccc2c(Cl)c(C(=O)N/N=C/c3cccnc3)sc2c1,inconclusive: -53.7%
6,COc1ccc(C(=O)Nc2ccccc2N2CCCCC2)cc1[N+](=O)[O-],active: -62.7%
7,Cc1cc(C)cc(N(CCC(=O)O)S(=O)(=O)c2ccc3ccccc3c2)c1,inconclusive: -42.3%
8,CC(=O)Oc1ccc(-c2csnn2)cc1,inconclusive: -56.6%
9,COc1ccccc1CNC(=O)Cn1c(=O)oc2cc(S(=O)(=O)N3CCCC3)ccc21,inconclusive: -59.7%
10,CCOc1ccc(-c2cn(S(=O)(=O)c3cccc4nsnc34)nc2N)cc1,inactive: -29.7%
11,O=C(Nc1cc(S(=O)(=O)Nc2ccccc2F)ccc1Cl)c1ccc(F)cc1F,inactive: -10.5%
12,COC(=O)/C(=C(O)\C=C\c1ccccc1[N+](=O)[O-])c1nc2ccccc2[nH]1,inactive: 48.7%
13,CC(C)=CCCC(C)CN1CCC(N2CCC(C(=O)N3CCCC3)CC2)CC1 (stereo not given),inconclusive: -43.5%
14,O=C(CCc1nc(-c2ccccc2)no1)N1CCCC1,inactive: 50.2%
15,COc1cccc(OCC(Cn2c(C)nc3ccccc32)OC(C)=O)c1 (stereo not given),active: -69.9%
16,Cc1ccc(C)c(N(C)S(=O)(=O)c2cccc3nsnc23)c1,inconclusive: -56.5%
17,Cc1cc(C)c(NC(=O)CN(C)CC(=O)Nc2cccc(S(=O)(=O)N(C)c3ccccc3)c2)c(C)c1,inconclusive: -48.1%
18,Cc1ccc(C)c(SCC(=O)OCC(=O)Nc2ncc(C(F)(F)F)cc2Cl)c1,inconclusive: -45.3%
19,CN(C(=O)CSC1=NCCS1)c1ccccc1,inconclusive: -53.6%
20,CC(C)Cc1nnc(NC(=O)CCC(=O)N2CCN(c3ccccc3F)CC2)s1,inconclusive: -41.1%
21,Cc1cc(=O)c2c(C)ccc(C)c2[nH]1,inconclusive: -53%
22,COc1ccc(C(=O)NCCc2c[nH]c3ccc(OC)cc23)cc1,inconclusive: -48.5%

row,SMILES,"activity change, negative = inhibition"
1,COc1cc(/C=C(\C#N)c2nc3ccc(C)cc3[nH]2)c([N+](=O)[O-])cc1OC,inactive: -26.8%
2,O=C(CN1CCCN(Cc2ccc(Cl)cc2)S1(=O)=O)Nc1ccccc1F,inconclusive: 0%
3,Cc1ccc(C)c(NC(=O)Cn2cc(C(=O)C3CCCCC3)c3ccccc32)c1,inactive: -14.6%
4,COc1ccccc1Nc1nc(-c2sc(NC(=O)c3ccco3)nc2C)cs1,inactive: 1.18%
5,O=C(c1ccc2c(c1)N(Cc1cccc(Cl)c1)C(=O)c1ccccc1S2(=O)=O)N1CCCCC1,active: -72.7%
6,CCCc1c(C)nn(C(=O)/C(C#N)=N/Nc2ccccc2[N+](=O)[O-])c1C,inconclusive: -46.2%
7,COc1ccc(-c2oc3ncn4nc(-c5ccccc5Br)nc4c3c2-c2ccc(OC)cc2)cc1,inactive: -0.523%
8,CN1CCN(C(c2ccc(C(F)(F)F)cc2)c2cc(Cl)c3cccnc3c2O)CC1 (stereo not given),inconclusive: -50.7%
9,COCCNc1nc(Oc2cncc(Cl)c2)c2sccc2n1,inconclusive: -56.4%
10,COc1ccc(C(CNC(=O)c2c(C)nn(Cc3ccccc3)c2Cl)N2CCOCC2)cc1 (stereo not given),inactive: 0%
11,Cc1cccc(N2CCN(C(=O)c3ccc4c(c3)CCN4S(C)(=O)=O)CC2)c1C,inconclusive: -43.1%
12,COc1ccc(-n2c(SCC(=O)N/N=C(\C)c3cccnc3)nc3ccccc3c2=O)cc1,inconclusive: -57.1%
13,CSc1nc(C(=O)N2CCc3c([nH]c4ccccc34)C2c2ccccn2)cs1 (stereo not given),inconclusive: -48.5%
14,COC(=O)c1ccc(COc2ccccc2/C=C(\C#N)C(=O)Nc2ccc(C)cc2)cc1,inconclusive: -52.7%
15,O=C(NNC(=S)NC(=O)c1ccc(F)cc1)c1ccncc1,inconclusive: -59.5%
16,Cc1ccc(S(=O)(=O)Cc2ccc(C(=O)N3CCN(c4ccc(F)cc4)CC3)o2)cc1,inconclusive: -44.3%
17,CCOC(=O)c1cc([N+](=O)[O-])sc1NC(=O)c1ccc(S(=O)(=O)N2CC3(C)CC2CC(C)(C)C3)cc1 (stereo not given),inconclusive: -44.4%
18,CC(C)C(=O)N1CCN(c2ccccc2NC(=O)c2ccco2)CC1,inactive: -26.2%
19,Cc1ccc(-n2ncc3c(NCCCN4CCOCC4)ncnc32)cc1Cl,inconclusive: -59%

# — PubChem BioAssay AID1259415 (National Center for Advancing Translational Sciences (NCATS), 2018)
